According to PubChem BioAssay AID504444 (National Center for Advancing Translational Sciences (NCATS), 2011):
About 7,500 (2.1%) of roughly 360,000 compounds were called active. Inconclusive means that the source gave no clear call. Such entries were picked first, then a sample of the others. The call rests on the fitted dose curve; in most records, active means well fitted inhibition curve with a large enough effect; inconclusive means small, poorly fitted or top-dose-only effect, or effect the other way; inactive means flat fitted curve, though single readings scatter. Where the call is inconclusive, the potency comes from a doubtful curve fit. Square brackets hold non-standard residues; d marks the D form. Peptide text beside a SMILES is read from it. * marks the point of attachment. ξ: configuration not given here. ξNMe2Val = CC(C)C(C(=O)*)N(C)C; NMeV = CN[CH](C(=O)O)C(C)C; NHBn = c1ccc(CN*)cc1

Experiment: Nrf2 qHTS screen for inhibitors; further: nearly all actives have a fitted effect of over 60% in size
Settings: A549 ARE-Fluc reporter, luciferase luminescence, 18-24 h; series mostly up to 46 µM
Method in brief: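 A549 ARE_Fluc cells (5000/well, 5% FBS OPTI-MEM) pre-incubated 2 h, then treated with compounds 18-24 h at 37C/5% CO2 in concentration-response. CellTiter-Fluor viability read first; BugLite luciferase luminescence after 15 min at room temperature gives Nrf2 activity.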
Potency means the concentration at half of the fitted maximal effect.

SMILES	Potency
CC(C)CCOC(=O)c1c(N)n(CC2CCCO2)c2nc3ccccc3nc12 (centres undefined)	inactive
CN1C2CCC1/C(=C/c1ccccn1)C(=O)/C2=C\c1ccccn1	active: 5.8 µM
COC(=O)C1=C(c2ccc(OC(F)(F)F)cc2)C[C@@H]2CC[C@H]1N2C(=O)N1CCCC1	inconclusive: 23.1 µM [falling, single point]
C[N+](C)(C)CC(=O)O	inactive
CC(=O)OC1CCC2(C)C(CCC3C4CC(N5CC5)C(C(C)=O)C4(C)CC(=O)C32)C1 (centres undefined)	inactive
CC(=O)OC(C)(C)/C=C/C(=O)C(C)(O)C1C(O)CC2(C)C3CC=C4C(CC(O)C(=O)C4(C)C)C3(C)C(=O)CC12C (centres undefined)	inconclusive: 1.84 µM [falling, partial curve, poor fit]
CC(C)[C@H]1C(=O)O[C@H](C(C)C)C(=O)N(C)[C@@H](C(C)C)C(=O)O[C@H](C(C)C)C(=O)N(C)[C@@H](C(C)C)C(=O)O[C@H](C(C)C)C(=O)N1C	active: 3.66 µM
CC(C)n1c(=O)c(C=Nc2cccc([N+](=O)[O-])c2)c(O)n(CCc2ccccc2)c1=O	inactive
CN(C)c1ccc(/C=C/c2cc[n+](C)c3ccccc23)cc1	active: 8.2 µM
COc1ccc(CNC(=O)c2cc3c(-c4ccccc4F)nn(C)c3s2)c(OC)c1	inconclusive: 18.4 µM [falling, single point]
C[C@@H]1O[C@@H](O[C@H]2C[C@@H](O)[C@]3(CO)[C@H]4[C@H](O)C[C@]5(C)[C@@H](C6COC(=O)C6)CC[C@]5(O)[C@@H]4CC[C@]3(O)C2)[C@H](O)[C@H](O)[C@H]1O (some centres undefined)	active: 0.411 µM
Cn1nc(-c2ccccc2)nc2c(=O)n(C)c(=O)nc1-2	active: 2.59 µM
Cc1[nH]c2c(Cl)cccc2c1CCN	inconclusive: 29.1 µM [falling, single point]
O=C1c2ccccc2S(=O)(=O)c2cc(C(=O)N3CCN(c4c(Cl)cncc4Cl)CC3)ccc21	inconclusive: 18.4 µM [falling, single point]
COc1cc(-c2nc3ccc(Cl)cn3c2Nc2ccc3c(c2)OCCO3)ccc1O	inconclusive: 20.6 µM [falling, single point]
O=C1C2CCCN2C(c2cccs2)N1c1ccc(Cl)cc1 (centres undefined)	inconclusive: 18.4 µM [activator, single point]
COc1cccc(C(=O)C2CCCN(Cc3cccc4c3OCO4)C2)c1 (centres undefined)	inconclusive: 4.11 µM [activator, partial curve, poor fit]
COC(=O)C1(C(=O)O)Cc2cc([N+](=O)[O-])ccc2N2CCCC21 (centres undefined)	inactive
CCOc1ccc(N=Cc2c(O)n(-c3ccc(C)c(C)c3)c(=O)[nH]c2=O)cc1	inactive
Cc1ccc(OCC(=O)N2CCN(Cc3ccc4c(c3)OCO4)CC2)cc1C	inconclusive: 23.1 µM [falling, partial curve, poor fit]
CN(C)P(=O)(C(Cl)=C(N1CCCCC1)N1CCCCC1)N(C)C	inconclusive: 16.4 µM [activator, partial curve]
CC(C)n1c(O)c(C2c3cc(Cl)ccc3Oc3[nH]c(=O)n(C(C)C)c(=O)c32)c(=O)[nH]c1=O (centres undefined)	inconclusive: 29.1 µM [falling, single point]

Retrieved by compound from above (2):
SMILES	Potency
C[N+](C)(C)CC(=O)O	inactive
CCOc1ccc(N=Cc2c(O)n(-c3ccc(C)c(C)c3)c(=O)[nH]c2=O)cc1	inactive

Further compounds

SMILES	Potency
CCCC12CN3CC(CCC)(CN(C1)C3c1ccccn1)C2=O (centres undefined)	inactive
CNCCc1c[nH]c2ccccc12	inactive
N#CC(C#N)=Cc1ccc(N2CCCC2)cc1	inconclusive: 11.6 µM [falling, partial curve, poor fit]
CCOC(=O)C(O)(c1ccc(NC(=S)NC(=O)c2ccc(Cl)cc2Cl)cc1)C(F)(F)F (centres undefined)	inconclusive: 23.1 µM [falling, single point]
O=[N+]([O-])c1ccc2nc(N3CCNCC3)ccc2c1	inactive
Cc1cccc(OCCCn2c(=O)oc3ccccc32)c1	inconclusive: 5.17 µM [activator, full curve]
CC1(C)CC(=O)C2=C(C1)NC(=O)C21C(C(=O)OC(C)(C)C)=C(N)Oc2ccc(Br)cc21 (centres undefined)	inconclusive: 29.1 µM [falling, single point]
CC1OC(OC2C=C3CCC4C(CCC5(C)C(c6ccc(=O)oc6)CCC45O)C3(C)CC2)C(O)C(OC2OC(CO)C(O)C(O)C2O)C1O (centres undefined)	active: 0.0731 µM
CC1=C(O)C(=O)C=C2C1=CC=C1C2(C)CCC2(C)C3CC(C)(C(=O)O)CCC3(C)CCC12C (centres undefined)	active: 18.4 µM
Cc1ccc(S(=O)(=O)N(C)C/N=C(\N)N[N+](=O)[O-])cc1	inactive
CC[n+]1c(SC)ccc2cc(OC)ccc21	active: 18.4 µM
CC(=O)Nc1ccc(C(c2c(O)c3ccccc3oc2=O)c2c(C)n(C)n(-c3ccccc3)c2=O)cc1 (centres undefined)	inconclusive: 11.6 µM [falling, partial curve, poor fit]
C=CCn1c(=O)c(C=Nc2cccnc2Cl)c(O)n(CCCC)c1=O	inconclusive: 20.6 µM [falling, single point]
O=C(Nc1ccc2oc(-c3cccnc3)nc2c1)c1ccc(-c2cccc(Cl)c2)o1	inconclusive: 2.91 µM [falling, full curve]
COC(=O)C1=C(c2cccc(OCc3ccccc3)c2)C[C@@H]2CC[C@H]1N2C(=O)NCCCc1ccccc1	active: 20.6 µM
Cc1nn(Cc2ccccc2)c(C)c1C(=O)OCC(=O)Nc1cc(S(C)(=O)=O)ccc1Cl	inconclusive: 23.1 µM [falling, single point]
O=P(O)(O)c1ccccc1OCCOCCOCCOCCOc1ccccc1P(=O)(O)O	inconclusive: 7.31 µM [activator, partial curve]
COc1cc2[nH]c(=O)n(Cc3ccc(C(=O)N4CCN(c5ccc(Cl)cc5)CC4)cc3)c(=O)c2cc1OC	inconclusive: 6.51 µM [falling, single point]
COC(=O)C1=C(c2cc3ccccc3o2)C[C@@H]2CC[C@H]1N2C(=O)N1CCC(C)CC1	inconclusive: 29.1 µM [falling, single point]
CC(C)C(NC(=O)C(C(C)C)N(C)C)C(=O)N(C)C(C(=O)N1CCCC1C(=O)N1CCCC1C(=O)NCc1ccccc1)C(C)C (centres undefined) (ξNMe2Val-V[NMeV]PP-NHBn; configuration not given here)	inconclusive: 0.164 µM [activator, full curve, poor fit]
O=C(Cc1ccc(S(=O)(=O)N2CCCC2)s1)N1CCN(c2ccc(F)cc2)CC1	active: 18.4 µM
C=CCn1c(O)c(C(CC)=NCc2ccc3c(c2)OCO3)c(=O)[nH]c1=O	inconclusive: 23.1 µM [falling, single point]

SMILES	Potency
Cc1cccc(NP2(=O)NCCCN2)c1	inconclusive: 4.61 µM [activator, partial curve, poor fit]
Cc1ccc(NC(=O)c2cc(S(=O)(=O)N3CCOCC3)c(Cl)cc2Cl)cc1	inconclusive: 16.4 µM [falling, single point]
COc1cc(C[C@@H](C)N)c(OC)cc1I	inconclusive: 0.366 µM [falling, full curve]
CCN(CC)C(=O)Oc1ccc2ccccc2c1Cl	inconclusive: 23.1 µM [activator, partial curve]
O=C1NC(=O)C(=Cc2c(Cl)cccc2Cl)C(=O)N1	inconclusive: 8.2 µM [falling, partial curve]
O=C1NC(c2cccnc2)Nc2sc3c(c21)CCCC3 (centres undefined)	inactive
CCOC(=O)c1c(C)n(Cc2ccccc2)c2ccc(OCC(O)CN3C(=O)CNC3=O)cc12 (centres undefined)	inconclusive: 18.4 µM [falling, partial curve, poor fit]
Cc1ccc(CCNC(=O)C2CCCN(Cc3nc(-c4cccc(Cl)c4)oc3C)C2)cc1 (centres undefined)	inconclusive: 2.06 µM [falling, partial curve, poor fit]
CCCNC(=O)N1[C@H]2CC[C@@H]1C(C(=O)OC)=C(c1ccc(F)cc1OCc1ccccc1)C2	inconclusive: 29.1 µM [falling, single point]
Clc1ccc(COn2ccnc2)cc1Cl	inconclusive: 16.4 µM [activator, single point]
Cc1cc(OCC(=O)NCc2cccnc2)c2c3c(c(=O)oc2c1)CCCC3	inconclusive: 29.1 µM [falling, single point]
O=C(N/N=C/c1c(O)n(CCC2=CCCCC2)c(=O)[nH]c1=O)c1ccccc1	inactive
CCCCCCN=C(CC)c1c(O)n(CCCC)c(=O)[nH]c1=O	inconclusive: 18.4 µM [falling, single point]
O=C1C=C2C=C[C@@H]3CC2(O1)[C@H]1CCCCN31	inconclusive: 0.58 µM [falling, partial curve, poor fit]
C/C(CC(c1ccccc1)c1c(O)c2ccccc2oc1=O)=N\Nc1ccc([N+](=O)[O-])cc1[N+](=O)[O-] (centres undefined)	active: 23.1 µM
N#Cc1ccccc1Cn1cc(C(=O)c2ccccc2F)c2ccccc21	inconclusive: 23.1 µM [falling, single point]
CC12CCC3c4ccc(OC(=O)N(CCCl)CCCl)cc4CCC3C1CCC2O (centres undefined)	inconclusive: 16.4 µM [falling, single point]
COc1ccc(C/C(=N\OC(C)=O)c2ccc(OC)cc2)cc1	inconclusive: 29.1 µM [activator, single point]
CCc1ccc(N2C(=O)NC(=O)/C(=C\C=C\c3ccco3)C2=O)cc1	inconclusive: 29.1 µM [falling, single point]
CN(CCc1ccccc1)C(=O)c1ccc(NC(=O)Cc2cccc([N+](=O)[O-])c2)cc1	inconclusive: 29.1 µM [falling, partial curve, poor fit]

Given as a markdown table: entries from further up

| SMILES | Potency |
| --- | --- |
| CC12CCC3c4ccc(OC(=O)N(CCCl)CCCl)cc4CCC3C1CCC2O (centres undefined) | inconclusive: 16.4 µM [falling, single point] |
| COc1ccc(C/C(=N\OC(C)=O)c2ccc(OC)cc2)cc1 | inconclusive: 29.1 µM [activator, single point] |
